## Library compounds against nucleic acid targets

Source: the ROBIN nucleic acid binder screens (doi:10.1002/anie.202211358).

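Compounds were printed on reactive glass slides in duplicate spots, a dye-labelled oligonucleotide was laid over them, and the fluorescence left after washing was read. For the PreQ1, TPP and SAM-II riboswitches the laboratory earlier reported (doi:10.1038/s41467-019-09493-3) 1 µM RNA, 2 h, and a rule that included a mean Z-score above 3 (spot signal-to-noise against the whole library), a score well above that on a control array, and duplicate spots agreeing (coefficient of variation under 100). The data file gives only the calls; its cut-offs may differ, and compounds hitting several targets are kept. The calls come from the array alone, and fixing a compound to the slide can hide its binding.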
Key: 1 = hit, 0 = tested without a hit.
The compounds are a random part of those screened.
A target missing from an entry has no call listed here.
A dash means that no call is listed here.

Targets, with sequences 5′ to 3′:
TPP: TPP riboswitch RNA three-way junction, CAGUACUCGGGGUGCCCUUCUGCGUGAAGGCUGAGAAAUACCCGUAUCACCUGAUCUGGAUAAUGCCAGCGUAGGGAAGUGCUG. About 24,000 compounds screened, about 160 hits.
PreQ1: PreQ1 riboswitch RNA pseudoknot, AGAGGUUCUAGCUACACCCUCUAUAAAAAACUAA. From B. subtilis. About 24,000 compounds screened, about 170 hits.
SAM-II: SAM-II riboswitch RNA pseudoknot, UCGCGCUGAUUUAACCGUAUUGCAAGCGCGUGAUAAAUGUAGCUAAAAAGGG. About 21,000 compounds screened, about 200 hits.

SMILES | TPP | PreQ1 | SAM-II
COc1ccc([C@H]2CN(C(=O)COC(C)C)C[C@@H]2N)cc1 | 0 | 0 | 0
Nc1ccn([C@H]2CC[C@@H](CO)O2)c(=O)n1 | 0 | 0 | 0
COc1cccc(C2=NN(CCO)c3nc4c(c(=O)n(C)c(=O)n4C)n3C2)c1 | 0 | 0 | 0
COc1ccc(OC)c(-c2[nH]c3c(C#N)cnn3c2NC2CCCCCCC2)c1 | 0 | 0 | -
CC(C)Nc1ncc(C(=O)N2CCCC(Nc3ccc4c(c3)OCO4)C2)cn1 (centres unmarked) | 0 | 0 | 0
Nc1ccc2nnc(C(F)(F)F)n2n1 | 0 | 0 | 0
Cc1nc(N2CCC(NCc3ccc4nonc4c3)CC2)c2ccsc2n1 | 0 | 0 | 0
Cc1noc(C)c1CNC(=O)c1cn(CCC2CCCCN2)nn1 (centres unmarked) | 0 | 0 | 0
CCCCc1nc(NCCN2CCOCC2)c(C#N)c2c1COC(C)(C)C2 | 0 | 0 | 0
Cc1ccccc1-c1ccccc1-c1ncnn1CCO | 0 | 0 | 0
CC(=NNC(=O)c1cc(C)n[nH]1)c1ccc(N)cc1 | 0 | 0 | 0
CC(=O)c1ccc(Nc2cc(C)c3ccc(O)cc3n2)cc1 | 0 | 0 | 0
OCc1ccc(-c2nccn2CCc2csc(-c3ncccn3)n2)o1 | 0 | 0 | 0
CCC(c1nc(Cc2cccs2)nn1CCO)n1cccn1 (centres unmarked) | 0 | 0 | 0
COC(=O)c1cc(NC2=NS(=O)(=O)c3ccccc32)cc(C(=O)OC)c1 | 0 | 0 | -
OCCn1cnc(-c2ccccc2)c1-c1cc(CN2CCCC2)cs1 | 0 | 0 | 0
O=C(O)c1cc(-c2ccc(CO)cc2)cc(S(=O)(=O)NCc2ccccn2)c1 | 0 | 0 | 0
Cn1c(=O)c2c(nc(N3CCCCC3)n2CCN)n(C)c1=O | 0 | 0 | 0
O=C1OC(Nc2ccc(F)c(Cl)c2)c2ccccc21 (centres unmarked) | 0 | 0 | 0
CCC(C)NCC(O)COc1ccc(Cl)c(C)c1 (centres unmarked) | 0 | 0 | 0
COc1ccccc1C1(CCNC(C)c2cccs2)CCOC(C(C)C)C1 (centres unmarked) | 0 | 0 | 0
Cc1cccc(OCC(O)Cn2c(C3CC(=O)N(c4ccccc4)C3)nc3ccccc32)c1 (centres unmarked) | 0 | 0 | -
CCOC(=O)CNc1ccccc1C(=O)NCCc1cc(O)nc(C)n1 | 0 | 0 | 0
O=C(c1ccoc1)N1CCCN(C2CCC3(CCNCC3)CC2)CC1 | 0 | 0 | 0
COc1cc(CNC(C)(C)CO)ccc1OCc1ccc(Cl)nc1.Cl | 0 | 0 | 0
Cc1c(-c2cccc3c(CCCOc4cccc5ccccc45)c(C(=O)O)n(Cc4cccnc4)c23)c(COc2ccc(N3CCN([S+](=O)([O-])N(C)C)CC3)cc2)nn1C | 0 | 0 | 0
NCCn1cc(C(=O)NCCc2nc(-c3cccnc3)n[nH]2)nn1 | 0 | 0 | 0
COc1ccc(-c2nc(-c3nonc3N)no2)cc1 | 0 | 0 | 0
COc1cc(CNCc2ccc(OC)c(Br)c2)cc(OC)c1 | 0 | 0 | 0
CC(C)[C@H](CO)Nc1nc(Nc2cccc(Cl)c2)c2ncn(C(C)C)c2n1 | 0 | 0 | 0
OC1(CNCCCn2nnc3ccccc32)CNCCOC1 (centres unmarked) | 0 | 0 | 0
O=C(CO)N1CCCC2(CCNC2)C1 (centres unmarked) | 0 | 0 | 0
COc1ccccc1CNc1ccc2c(c1)ncn2-c1ccccc1 | 0 | 0 | 0
Nc1c(Cl)cc2c(c1C#CC(=O)c1ccccc1)C(=O)c1ccccc1C2=O | 0 | 0 | 0
C=CCN1CC(c2nc3ccccc3n2CC(O)COc2ccccc2)CC1=O (centres unmarked) | 0 | 0 | -
Cc1nnc(CN)o1 | 0 | 0 | 0
CN(CC1N=NC2=C1CCC2)c1nc(-c2ccccc2)nc2c1CCNC2 (centres unmarked) | 0 | 0 | 0
NC(=O)c1ccc(I)c([N+](=O)[O-])c1 | 0 | 0 | 0
NCCn1cc(C(=O)NCCC(=O)Nc2nccs2)nn1 | 0 | 0 | 0
CCCCCCCCCCCCCCCCCCOP(=O)([O-])OC1CC[N+](C)(C)CC1 | 0 | 0 | 0
Fc1ccc(-c2ccc(CNCCCn3ccnc3)o2)cc1 | 0 | 0 | -
CC(=O)Nc1ccc(S(=O)(=O)N=S(C)C)cc1 | 0 | 0 | 0
CC1(C)CCC[C@@]2(C)[C@@H]1CC[C@@]1(C)OC(=O)C[C@H]21 | 0 | 0 | 0
Cn1c(=O)c2c(-c3ccncc3)c(C#N)c(N)nc2n(C)c1=O | 0 | 0 | -
CCC(=O)O[C@]1(C(=O)SCF)[C@H](C)C[C@H]2[C@@H]3C[C@H](F)C4=CC(=O)C=C[C@]4(C)[C@@]3(F)[C@@H](O)C[C@@]21C | 0 | 0 | 0
Cl.O=C1CCCN1CCCNCC1CCCCC1 | 0 | 0 | 0
CC(=O)C1=C(C)OC(N)=C(C#N)C1c1ccc(F)cc1 (centres unmarked) | 0 | 0 | 0
COc1cccc(OCC(O)CNC(=O)Nc2ccc3c(c2)OCCO3)c1 (centres unmarked) | 0 | 0 | 0
OCCC1CNCCN1Cc1ccc(F)c(F)c1 (centres unmarked) | 0 | 0 | 0
CC(O)CCC(=O)NCCc1nc2ccccc2[nH]1 (centres unmarked) | 0 | 0 | -
O=C1CCC2(CCNCC2)CN1Cc1nc(-c2ccncc2)n[nH]1 | 0 | 0 | 0
CCn1c(C)cc(C)c(C(=O)N2C[C@H](c3cccc(OC)c3)[C@@H](N)C2)c1=O | 0 | 0 | 0
CCCn1cc(C(=O)N2CCNCC2C(=O)Nc2ccc(F)cc2)c(C)n1 (centres unmarked) | 0 | 0 | 0
Cc1cccc(C)c1NC(=O)Cn1nnc(C(=O)Nc2ccc(F)cc2)c1N | 0 | 0 | 0
C=C(C)C/N=C/C1(C)CCC(C)=CO1 (centres unmarked) | 0 | 0 | 0
CC(C)Cn1cncc1CNC(=O)[C@H](N)c1ccccc1 | 0 | 0 | 0
N#Cc1c(N)sc2c1-c1ccccc1CC2 | 0 | 0 | 0
CC(C)Nc1ncc(CN2C[C@@H](CN3CCCN(C)CC3)[C@@H](CO)C2)cn1 | 0 | 0 | 0
COc1nc2ccccc2cc1-c1c(-c2ccccc2)ncn1C(CO)CO | 0 | 0 | 0
COc1ccc(NCc2ccccc2NS(=O)(=O)c2ccc(C)cc2)cc1 | 0 | 0 | 0
N#CC1=C(N)Oc2[nH]nc(-c3ccc(Cl)cc3)c2C1c1ccc2c(c1)OCO2 (centres unmarked) | 0 | 0 | 0
COc1ccc(-n2c(C)c([N+](=O)[O-])c3ccc(O)cc32)cc1 | 0 | 0 | 0
CC(CNC1CCN(S(C)(=O)=O)CC1)Oc1cccnc1 (centres unmarked) | 0 | 0 | 0
CC(=O)c1cccc(Nc2cc(C)nc3nc(-c4cccnc4)nn23)c1 | 0 | 0 | -

For reference, 8 entries once more:

{"smiles": "COc1ccc([C@H]2CN(C(=O)COC(C)C)C[C@@H]2N)cc1", "TPP": "0", "PreQ1": "0", "SAM-II": "0"}
{"smiles": "CC(=O)c1cccc(Nc2cc(C)nc3nc(-c4cccnc4)nn23)c1", "TPP": "0", "PreQ1": "0"}
{"smiles": "OCCC1CNCCN1Cc1ccc(F)c(F)c1", "stereo": "centres unmarked", "TPP": "0", "PreQ1": "0", "SAM-II": "0"}
{"smiles": "Nc1c(Cl)cc2c(c1C#CC(=O)c1ccccc1)C(=O)c1ccccc1C2=O", "TPP": "0", "PreQ1": "0", "SAM-II": "0"}
{"smiles": "CN(CC1N=NC2=C1CCC2)c1nc(-c2ccccc2)nc2c1CCNC2", "stereo": "centres unmarked", "TPP": "0", "PreQ1": "0", "SAM-II": "0"}
{"smiles": "CCCCCCCCCCCCCCCCCCOP(=O)([O-])OC1CC[N+](C)(C)CC1", "TPP": "0", "PreQ1": "0", "SAM-II": "0"}
{"smiles": "Cc1noc(C)c1CNC(=O)c1cn(CCC2CCCCN2)nn1", "stereo": "centres unmarked", "TPP": "0", "PreQ1": "0", "SAM-II": "0"}
{"smiles": "COc1cccc(OCC(O)CNC(=O)Nc2ccc3c(c2)OCCO3)c1", "stereo": "centres unmarked", "TPP": "0", "PreQ1": "0", "SAM-II": "0"}